Paper PMC11781671

Target: T1, Flag-tagged CRYAB (exogenous) (human) (UniProt P02511)
T1 sequence: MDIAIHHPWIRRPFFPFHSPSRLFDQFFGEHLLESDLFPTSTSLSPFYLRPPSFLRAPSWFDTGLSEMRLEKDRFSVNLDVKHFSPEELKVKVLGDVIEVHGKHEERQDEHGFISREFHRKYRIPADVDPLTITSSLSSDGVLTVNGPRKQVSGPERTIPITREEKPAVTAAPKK
Assay: co-IP; Huh7 cells co-transfected with a Flag-tagged host protein plasmid and an HBx plasmid; MG132 for the last 12 h; precipitated with anti-Flag beads

Row | Substance | binding
1 | EGFP-HBx (wild type HBx of HBV genotype B fused downstream of EGFP) (Hepatitis B virus genotype B) | binds
2 | EGFP-HBx(delC) (HBx lacking the C-terminal domain, fused downstream of EGFP) (Hepatitis B virus genotype B) (domain or fragment) | no binding

These are yes or no findings as the source states them, for the method shown. In cells and extracts the contact can be indirect. Binding calls can cover weak binding; strength is not graded here. Sequences can lack the tags named with a protein.
